Measured values: patent publication US11685741B2, “Fluorescent probes” (University of Massachusetts, priority 2017, dated 2023)

What was measured:
[1] = Binding studies of sensor with Fe2+ (stoichiometry, affinity, reversibility); conditions: H2O/THF pH 7.3
Description: The binding stoichiometry between the sensor Rh6GD and Fe^2+ was investigated by absorption and fluorescence titrations first. The sensor, Rh6GD has an absorption band at ˜420 nm (FIG. 26) which is due to the transition from S0 to S1 states (A. Chakraborty, et al., N. Chem. Phys., 2006, 324, 733) of the dimethylaminocinnamaldehyde moiety. […] Similar titrations were performed and were monitored by fluorescence spectroscopy.
The binding constant was estimated by using the absorption titration results. The equations below were used to calculate the binding constant for 2:1 complexes following a reported procedure (M. Guo, et al., Dalton Trans., 2007, 102, 4951). S+2L ? SL2 (1) The complex apparent binding constant is given by
[formula] Fc is the fraction of L that formed a complex; the subscripts e and o stand for equilibrium and initial concentrations, respectively. Au, Am, and Ac are the absorbances of solutions of L (before any Fe^2+ was added), during the titration, and at saturation, respectively. The concentration of free Fe^2+ at equilibrium, [S]e, is found with the following identity: [S]e=[S]o−[SL2]e[=S]o−Fc[L]o (4) Finally, the integrated apparent binding constant equation is shown in equation (5).
Reversibility experiments were carried out by adding the metal chelator EDTA to the Rh6GD-Fe^2+ complex in H2O/THF (pH 7.3, v/v 4:1). […]
Besides metal-selectivity, the binding constant, which describes the strength of binding between the sensor and metal cations, is also an important factor to be considered in bio-imaging. […] Job's method was applied to study the binding stoichiometry between Rh101D and Fe^2+ and monitored by the absorbance at 585 nm.
The binding constants were estimated by using the fluorescence titration results (FIG. 38). […]
The binding stoichiometry and the affinity between the sensor NIRh-Fret and Fe^2+ were investigated by UV-vis absorption titration. […] The binding constant for the formation of this complex was determined to be 2.9×10^6 M^−1 using a reported procedure (C. A. Perez, et al., J. Inorg. Biochem., 2009, 103, 326). […]

[2] = tested on: primary human fibroblast cells (ws1); test: Confocal imaging of Fe2+ with Rh6GD in ws1 cells; type: cell-based; conditions: ws1, MitoTracker and LysoTracker
Description: Human primary fibroblast ws1 cells were grown at 37° C. in a humid atmosphere of 5% CO2 atmosphere in eagle's minimum essential medium (EMEM, ATCC) supplemented with 10% fetal bovine serum (FBS, ATCC). Cultures were divided into 1:2 every 48 h to an approximate cell density of 1.21 million cells/ml and used for experiments after 24 h.
A Zeiss LSM 710 laser-scanning confocal microscope system was used for cell imaging experiments. 40× oil-immersion objective lens were used to perform all the experiments. For imaging with the Rh6GD sensor, excitation wavelength of the laser was 543 nm and emissions were collected over the range 545-625 nm. For images with MitoTracker Green FM, LysoTracker Deep Red, excitation wavelengths recommended by the manufacturer were 488 nm for MitoTracker, 633 nm for LysoTracker. Emissions were integrated at 492-535 nm (MitoTracker), 650-800 nm (LysoTracker), respectively.
Ws1 cells, at an approximately density of 1.2 million/ml in complete EMEM medium, were incubated with 100 μM ferrous ammonium sulfate (FAS, Fe (NH4)2(SO4)2 from a 10 mM stock solution) for overnight at 37° C. in a humid atmosphere of 5% CO2 and then the cells were washed with fresh EMEM medium to remove excess Fe^2+. Then cells were incubated with Rh6GD (10 μM, from 500 μM stock solution in DMF) at 37° C. for 30 min and then cells were washed with EMEM media and then imaged. […]

CCNc1cc2c(cc1C)C1(c3cc(C)c(NCC)cc3O2)c2ccccc2C(=O)N1/N=C/C=C/c1ccc(N(C)C)cc1 [Rh6GD, 2-(((1E,2E)-3-(4-(dimethylamino)phenyl)allylidene)amino)-3′,6′-bis(ethylamino)-2′,7′-dimethylspiro[isoindoline-1,9′-xanthen]-3-one]
reversibility of binding on addition of EDTA [1]: reversible binding | subcellular location of exchangeable Fe^2+ pools detected [2]: mitochondria and lysosomes; also recorded: mitochondria and endosomes/lysosomes, not in the cytosol

Entries after “also recorded” stand apart in the source; their conditions may differ.
